Results are given in words; binding and its absence hold for the method and conditions named. For part of these data: Binding can be weak; no strength is given. For part of these data: Sequences can lack the tags named with a protein. For part of these data: In cells and extracts the contact can be indirect.
Assays:
[1] = target: T1, GST-Numb PTB (Drosophila) (UniProt P16554); experiment: pull-down; GST-Numb PTB or GST as bait; lysates of HEK293T cells expressing Flag-Pon full length or fragments; blot: Flag; only the target purified
T1 sequence: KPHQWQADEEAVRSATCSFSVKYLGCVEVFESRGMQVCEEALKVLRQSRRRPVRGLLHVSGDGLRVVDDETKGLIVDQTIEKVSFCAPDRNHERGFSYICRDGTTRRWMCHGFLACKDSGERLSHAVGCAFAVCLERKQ

HA-Numb PTB (Drosophila) = target: T2, HA-Numb PTB (Drosophila) (UniProt P16554); experiment: co-IP; HEK293T cells co-transfected with HA-Numb PTB and Flag-Pon full length or fragments; IP: HA, blot: Flag
T2 sequence: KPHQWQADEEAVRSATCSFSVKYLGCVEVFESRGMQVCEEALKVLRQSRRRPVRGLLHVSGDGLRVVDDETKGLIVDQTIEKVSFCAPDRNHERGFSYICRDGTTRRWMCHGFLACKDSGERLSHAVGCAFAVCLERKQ

Numb PTB R171A = target: T3, Numb PTB R171A (Drosophila, UniProt P16554-1 65-203, R171A); experiment: ITC; Pon fragments (~0.5 mM) injected into PTB proteins (~0.05 mM); 20 °C; 50 mM Tris pH 8.0, 100 mM NaCl, 1 mM EDTA, 1 mM β-ME; one-site binding model; both purified
T3 sequence: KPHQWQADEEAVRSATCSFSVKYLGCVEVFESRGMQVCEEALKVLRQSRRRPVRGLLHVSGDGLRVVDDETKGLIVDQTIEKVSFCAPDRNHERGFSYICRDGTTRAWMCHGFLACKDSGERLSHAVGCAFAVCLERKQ

[2] = target: T4, Drosophila Numb PTB domain (aa 65-203) (Drosophila) (UniProt P16554); experiment: AUC; sedimentation velocity, 42,000 rpm, 4 °C, interference detection; Numb PTB with three molar ratios of Pon A2B2; both purified
T4 sequence: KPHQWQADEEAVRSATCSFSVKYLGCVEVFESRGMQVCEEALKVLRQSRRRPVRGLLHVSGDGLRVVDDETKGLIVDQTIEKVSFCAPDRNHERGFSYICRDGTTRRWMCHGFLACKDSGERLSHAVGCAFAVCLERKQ

[3] = target: T5, Numb full length (HA-Numb and Flag-Numb) (Drosophila) (UniProt P16554); experiment: co-IP; grade 'Binding avidity' of the summary table for full-length Pon and Numb; the table names no assay: full-length Pon and Numb were tested together only by co-IP in HEK293T cells (anti-Flag gel; Fig. 2e, f)
T5 sequence: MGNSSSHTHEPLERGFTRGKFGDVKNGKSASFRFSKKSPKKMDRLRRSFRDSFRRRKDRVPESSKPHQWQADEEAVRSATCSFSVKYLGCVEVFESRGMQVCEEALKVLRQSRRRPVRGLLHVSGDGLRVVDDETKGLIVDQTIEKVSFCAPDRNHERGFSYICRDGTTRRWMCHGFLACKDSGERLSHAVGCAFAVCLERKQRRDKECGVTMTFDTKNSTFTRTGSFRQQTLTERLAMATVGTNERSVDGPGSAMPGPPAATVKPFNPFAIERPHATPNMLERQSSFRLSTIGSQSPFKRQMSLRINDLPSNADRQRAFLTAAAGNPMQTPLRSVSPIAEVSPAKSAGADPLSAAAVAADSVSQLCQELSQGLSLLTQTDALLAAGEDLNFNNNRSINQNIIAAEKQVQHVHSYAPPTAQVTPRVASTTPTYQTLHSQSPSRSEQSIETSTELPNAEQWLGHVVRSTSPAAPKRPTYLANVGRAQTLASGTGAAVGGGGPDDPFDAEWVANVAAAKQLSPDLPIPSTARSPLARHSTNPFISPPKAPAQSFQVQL

[4] = target: T1, GST-Numb PTB (Drosophila); experiment: pull-down; GST or GST fusion (2 nmol) on GSH-Sepharose 4B, 6 nmol of the other protein (1:3 molar ratio), 500 μl buffer A (50 mM Tris pH 8.0, 100 mM NaCl, 1 mM EDTA, 1 mM β-ME), 1 h at 4 °C; SDS-PAGE, Coomassie; both purified
[5] = target: T1, GST-Numb PTB (Drosophila); experiment: pull-down; GST or GST fusion proteins (2 nmol) on GSH-Sepharose 4B beads, 6 nmol of the indicated protein in 500 μl buffer A (50 mM Tris pH 8.0, 1 mM EDTA, 1 mM β-ME, 100 mM NaCl), 1 h at 4 °C; SDS-PAGE, Coomassie blue; both purified
[6] = target: Flag-Pon full length (Drosophila); experiment: co-IP; grade 'Binding avidity' of the summary table for full-length Pon and Numb; the table names no assay: full-length Pon and Numb were tested together only by co-IP in HEK293T cells (anti-Flag gel; Fig. 2e, f)
[7] = target: GST-Pon1-228 (Drosophila); experiment: pull-down; GST or GST fusion (2 nmol) on GSH-Sepharose 4B, 6 nmol of the other protein (1:3 molar ratio), 500 μl buffer A (50 mM Tris pH 8.0, 100 mM NaCl, 1 mM EDTA, 1 mM β-ME), 1 h at 4 °C; SDS-PAGE, Coomassie; both purified
[8] = target: GST-Pon1-228 (Drosophila); experiment: pull-down; GST or GST fusion proteins (2 nmol) on GSH-Sepharose 4B beads, 6 nmol of the indicated protein in 500 μl buffer A (50 mM Tris pH 8.0, 1 mM EDTA, 1 mM β-ME, 100 mM NaCl), 1 h at 4 °C; SDS-PAGE, Coomassie blue; both purified

Question: For “Flag-Pon1-228 (Drosophila) (domain or fragment)”, which binding [1] is on record?
Answer: binds

Question: And the binding (HA-Numb PTB (Drosophila))?
Answer: binds

Question: How did the binding (Numb PTB R171A) turn out when “Pon 130-162 (A2B2) (Drosophila) (domain or fragment)” was run?
Answer: no binding (tested: > 100 μM)

Question: What about the binding [2] of the same molecule?
Answer: binds

Question: Pon 1-670 N169A,F186E (Drosophila) was tested. Which binding [3] did it give?
Answer: binds

Question: How did the binding (HA-Numb PTB (Drosophila)) turn out when “Flag-Pon 435-672 (Drosophila) (domain or fragment)” was run?
Answer: no binding

Question: How did the binding [3] turn out when Pon 1-670 N139A,Y154E (Drosophila) was run?
Answer: binds

Question: For “Flag-Pon 219-440 (Drosophila) (domain or fragment)”, which binding (HA-Numb PTB (Drosophila)) is on record?
Answer: no binding

Question: Which binding [1] does the source give for Flag-Pon full length (Drosophila) here?
Answer: binds

Question: And the binding (HA-Numb PTB (Drosophila))?
Answer: binds

Question: And the binding [3]?
Answer: binds

Question: With “Pon 1-228 (A1B3) (Drosophila) (domain or fragment)” as the molecule, how does the binding [4] read?
Answer: binds

Question: Which binding (Numb PTB R171A) does the source give for “Pon 110-148 (B1A2) (Drosophila) (domain or fragment)” here?
Answer: no binding (tested: > 100 μM)

Question: For “Pon N-terminal fragment (aa 1–228), A1B1A2B2A3B3 (Drosophila) (domain or fragment)”, which binding [5] is on record?
Answer: binds

Question: “Flag-Pon1-116 (Drosophila) (domain or fragment)” was tested. Which binding [1] did it give?
Answer: no binding

Question: What about the binding (HA-Numb PTB (Drosophila)) of the same molecule?
Answer: no binding

B1: Numb 1-556 G192D (protein, UniProt P16554-1 1-556)
chain: MGNSSSHTHEPLERGFTRGKFGDVKNGKSASFRFSKKSPKKMDRLRRSFRDSFRRRKDRVPESSKPHQWQADEEAVRSATCSFSVKYLGCVEVFESRGMQVCEEALKVLRQSRRRPVRGLLHVSGDGLRVVDDETKGLIVDQTIEKVSFCAPDRNHERGFSYICRDGTTRRWMCHGFLACKDSGERLSHAVDCAFAVCLERKQRRDKECGVTMTFDTKNSTFTRTGSFRQQTLTERLAMATVGTNERSVDGPGSAMPGPPAATVKPFNPFAIERPHATPNMLERQSSFRLSTIGSQSPFKRQMSLRINDLPSNADRQRAFLTAAAGNPMQTPLRSVSPIAEVSPAKSAGADPLSAAAVAADSVSQLCQELSQGLSLLTQTDALLAAGEDLNFNNNRSINQNIIAAEKQVQHVHSYAPPTAQVTPRVASTTPTYQTLHSQSPSRSEQSIETSTELPNAEQWLGHVVRSTSPAAPKRPTYLANVGRAQTLASGTGAAVGGGGPDDPFDAEWVANVAAAKQLSPDLPIPSTARSPLARHSTNPFISPPKAPAQSFQVQL
Question: With B1 as the molecule, how does the binding [6] read?
Answer: binds

B2: Drosophila Numb PTB domain (aa 65-203) (domain or fragment, UniProt P16554-1 65-203)
chain: KPHQWQADEEAVRSATCSFSVKYLGCVEVFESRGMQVCEEALKVLRQSRRRPVRGLLHVSGDGLRVVDDETKGLIVDQTIEKVSFCAPDRNHERGFSYICRDGTTRRWMCHGFLACKDSGERLSHAVGCAFAVCLERKQ
Question: How did the binding [7] turn out when B2 was run?
Answer: binds

B3: Numb 1-556 C90W (protein, UniProt P16554-1 1-556)
chain: MGNSSSHTHEPLERGFTRGKFGDVKNGKSASFRFSKKSPKKMDRLRRSFRDSFRRRKDRVPESSKPHQWQADEEAVRSATCSFSVKYLGWVEVFESRGMQVCEEALKVLRQSRRRPVRGLLHVSGDGLRVVDDETKGLIVDQTIEKVSFCAPDRNHERGFSYICRDGTTRRWMCHGFLACKDSGERLSHAVGCAFAVCLERKQRRDKECGVTMTFDTKNSTFTRTGSFRQQTLTERLAMATVGTNERSVDGPGSAMPGPPAATVKPFNPFAIERPHATPNMLERQSSFRLSTIGSQSPFKRQMSLRINDLPSNADRQRAFLTAAAGNPMQTPLRSVSPIAEVSPAKSAGADPLSAAAVAADSVSQLCQELSQGLSLLTQTDALLAAGEDLNFNNNRSINQNIIAAEKQVQHVHSYAPPTAQVTPRVASTTPTYQTLHSQSPSRSEQSIETSTELPNAEQWLGHVVRSTSPAAPKRPTYLANVGRAQTLASGTGAAVGGGGPDDPFDAEWVANVAAAKQLSPDLPIPSTARSPLARHSTNPFISPPKAPAQSFQVQL
Question: B3 was tested. Which binding [6] did it give?
Answer: no binding

B4: Numb 1-556 C90W,G192D (protein, UniProt P16554-1 1-556)
chain: MGNSSSHTHEPLERGFTRGKFGDVKNGKSASFRFSKKSPKKMDRLRRSFRDSFRRRKDRVPESSKPHQWQADEEAVRSATCSFSVKYLGWVEVFESRGMQVCEEALKVLRQSRRRPVRGLLHVSGDGLRVVDDETKGLIVDQTIEKVSFCAPDRNHERGFSYICRDGTTRRWMCHGFLACKDSGERLSHAVDCAFAVCLERKQRRDKECGVTMTFDTKNSTFTRTGSFRQQTLTERLAMATVGTNERSVDGPGSAMPGPPAATVKPFNPFAIERPHATPNMLERQSSFRLSTIGSQSPFKRQMSLRINDLPSNADRQRAFLTAAAGNPMQTPLRSVSPIAEVSPAKSAGADPLSAAAVAADSVSQLCQELSQGLSLLTQTDALLAAGEDLNFNNNRSINQNIIAAEKQVQHVHSYAPPTAQVTPRVASTTPTYQTLHSQSPSRSEQSIETSTELPNAEQWLGHVVRSTSPAAPKRPTYLANVGRAQTLASGTGAAVGGGGPDDPFDAEWVANVAAAKQLSPDLPIPSTARSPLARHSTNPFISPPKAPAQSFQVQL
Question: With B4 as the molecule, how does the binding [6] read?
Answer: no binding

B5: Drosophila Numb PTB domain (aa 65–203) (domain or fragment, UniProt P16554-1 65-203)
chain: KPHQWQADEEAVRSATCSFSVKYLGCVEVFESRGMQVCEEALKVLRQSRRRPVRGLLHVSGDGLRVVDDETKGLIVDQTIEKVSFCAPDRNHERGFSYICRDGTTRRWMCHGFLACKDSGERLSHAVGCAFAVCLERKQ
Question: For B5, which binding [8] is on record?
Answer: binds
